Data published in article PMC9121072.
No constants are given. Whether binding was seen depends on the method and setting. Binding can be weak; no strength is given. Tags and fused reporters may be left off the sequences shown. For some assays here: Binding seen in cells or lysates may run through a third protein. Each block holds one binder with its values, some of them ahead of it.

What was measured:
[1] = target: OsMKK1 (mitogen-activated protein kinase kinase from rice), pGBKT7 fusion (rice (Oryza sativa)); assay: two-hybrid; Matchmaker Gold Yeast Two-Hybrid System; OsMKK1 in pGBKT7, BURP proteins in pGAD-T7, co-transformed into Y2H Gold; growth on SD/-Leu/-Trp/-His and SD/-Leu/-Trp/-His/-Ade at 30°C for 3-5 days
[2] = target: OsMKK1 fused to cEYFP (rice (Oryza sativa)); assay: split reporter; BiFC in tobacco (N. benthamiana) leaves; bait with cYFP (OsMKK1), prey with nYFP (OsBURP3, PpBURP2); agroinfiltration, fluorescence examined after 48 h

binding [1]: binds
B1: OsBURP3 (BURP domain-containing protein 3 from rice), pGAD-T7 fusion (protein, UniProt Q942D4 1-429)
chain: MDRLLACLLGFLLIASVGSHAARTPEQYWKSALPNSPIPSSLSQLLSTAGGGTSVNVGGGGVHVDAGHGKPGGTTVDVGKGGVGVNVKPGYGKPGGTTVGVGKGGVGVNVKPGYGKPGGTSVGVGKGGVGVNVQPGYGKPGGTTVGVGKGGVGVNVQPGYGKPGGTTVGVGKGGVGVNVKPRGKPVHVNVAPFIYNYAATETQLHDDPNVALFFLEKDLHPGKTMAVHFTATTAGEKFLPRSEADAMPFSSEKVPEILSRFSVKPGSVEAAEMAQTLRDCEAPPAQGERKACATSLESMVDFATSSLGTSHVRAASTVVGKEGSPEQEYTVTAVKRAAAGGDQDQLVACHAEPYAYAVFACHLTRATRAYAVSMAGRDGTGVEAVAVCHADTAGWNPKHVAFQVLKVKPGTVPVCHFLPQDHVVWTRSG

binding [2]: binds
B2: OsBURP3 fused to nEYFP (protein, UniProt Q942D4 22-429)
chain: ARTPEQYWKSALPNSPIPSSLSQLLSTAGGGTSVNVGGGGVHVDAGHGKPGGTTVDVGKGGVGVNVKPGYGKPGGTTVGVGKGGVGVNVKPGYGKPGGTSVGVGKGGVGVNVQPGYGKPGGTTVGVGKGGVGVNVQPGYGKPGGTTVGVGKGGVGVNVKPRGKPVHVNVAPFIYNYAATETQLHDDPNVALFFLEKDLHPGKTMAVHFTATTAGEKFLPRSEADAMPFSSEKVPEILSRFSVKPGSVEAAEMAQTLRDCEAPPAQGERKACATSLESMVDFATSSLGTSHVRAASTVVGKEGSPEQEYTVTAVKRAAAGGDQDQLVACHAEPYAYAVFACHLTRATRAYAVSMAGRDGTGVEAVAVCHADTAGWNPKHVAFQVLKVKPGTVPVCHFLPQDHVVWTRSG
